# The supplement of paper PMC3334620
# Whole data set: some 33,000 sequences, median “E-score (-0.5 to 0.5)” near -0.015, cut for the highest 2% near 0.3. The list shows a part of the results.
# Target: T1, Abf1 (UniProt P14164)
# T1 sequence: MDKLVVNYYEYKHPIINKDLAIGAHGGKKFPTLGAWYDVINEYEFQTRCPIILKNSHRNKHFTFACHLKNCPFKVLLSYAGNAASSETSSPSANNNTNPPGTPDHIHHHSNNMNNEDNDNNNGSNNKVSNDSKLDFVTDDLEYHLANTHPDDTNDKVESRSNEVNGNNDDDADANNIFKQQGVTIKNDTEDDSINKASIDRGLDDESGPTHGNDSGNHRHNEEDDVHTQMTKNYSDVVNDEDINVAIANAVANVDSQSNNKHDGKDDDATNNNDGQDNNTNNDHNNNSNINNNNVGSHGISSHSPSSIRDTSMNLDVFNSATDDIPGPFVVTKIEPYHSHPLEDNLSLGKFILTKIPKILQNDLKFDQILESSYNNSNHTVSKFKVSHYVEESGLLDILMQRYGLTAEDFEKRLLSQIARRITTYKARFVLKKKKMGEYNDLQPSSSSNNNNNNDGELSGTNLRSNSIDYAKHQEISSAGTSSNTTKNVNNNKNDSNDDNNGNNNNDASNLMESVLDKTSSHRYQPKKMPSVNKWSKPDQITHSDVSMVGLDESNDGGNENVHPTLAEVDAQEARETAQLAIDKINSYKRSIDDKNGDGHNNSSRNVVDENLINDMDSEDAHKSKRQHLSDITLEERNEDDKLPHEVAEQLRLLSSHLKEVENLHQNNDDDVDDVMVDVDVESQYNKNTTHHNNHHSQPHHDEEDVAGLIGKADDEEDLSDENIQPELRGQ
# Assay: PBM E-score (8-mer binding enrichment) (E-score (-0.5 to 0.5)); higher = stronger / more preferred TF binding
# Conditions: protein concentration: 200 nM; construct: GST-full length
# In short: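 Yeast transcription factors, full-length or as DNA-binding domains, were expressed with a GST tag using PURExpress in vitro transcription/translation. At about 100-200 nM they were applied to universal all-10-mer Agilent arrays, double-stranded by primer extension on fresh or once-stripped slides. Fluorescent anti-GST detected bound protein, and masliner normalised the scans. E-scores for ungapped eight-base words, pooled with reverse complements, came from the Universal PBM Analysis Suite.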
row,Sequence,PBM E-score
1,CCCGGAGA,-0.249
2,GCTGACGA,0.173
3,GCGTGCGA,-0.0331
4,GGAGGAAA,-0.252
5,GTGCTGCA,0.0593
6,ACATACAC,0.106
7,AGGTATCC,0.061
8,GATAACAC,0.164
9,CAAGAATG,0.0252
10,AATTCCCG,-0.0785
11,CAGAACTC,-0.0645
12,AATGATGG,0.0838
13,AGGGACTA,-0.0198
14,ATGGTGAC,0.177
15,TATACATA,0.0494
16,CGAAGCAC,0.0193
17,ACAGCACT,0.0975
18,ACCTCGCC,-0.228
19,AAAACTGG,-0.0893
20,CAATGTTA,0.00532
21,CGGGACAC,-0.213
22,CACACAAG,-0.115

# As entered above:
# Entry for GTGCTGCA under PBM E-score: 0.0593
# Entry for ACCTCGCC under PBM E-score: -0.228
# Entry for ACAGCACT under PBM E-score: 0.0975
# Entry for ACATACAC under PBM E-score: 0.106
# Entry for CAAGAATG under PBM E-score: 0.0252

# (next part)

row,Sequence,PBM E-score
1,GCTTTCTA,0.0881
2,CGTCGTTA,0.257
3,AACTAATT,0.158
4,GGCTGTTA,-0.0398
5,GTAGAACA,-0.00788
6,GGCGACCA,-0.195
7,AATAGCCT,-0.0216
8,ACAGCATG,-0.0675
9,CCAGTGTA,0.028
10,GCTTTAGA,-0.148
11,AGGATATA,0.143
12,TGGAGACA,0.0975
13,GTCGGACA,0.109
14,CACACATC,-0.122
15,CCATCTGA,0.0783
16,CAAGCAAA,-0.0902
17,TAAGCTTA,0.0474
18,TTCAAAAA,0.12
19,ACTGCATG,0.124
20,TCAGTTAA,-0.0609
21,ATCCGAAA,0.0126
22,ACCAAGAC,-0.0179

row,Sequence,PBM E-score
1,GTACGGTA,0.197
2,GGCAGGAA,0.0517
3,CATATGAG,0.0546
4,GTAGGGAC,-0.0699
5,ACTGGTGC,-0.0134
6,GAGGCGGC,-0.0954
7,TAGCCTAA,-0.0815
8,CCCTTCCC,-0.279
9,GCCTCCTA,-0.221
10,TCAATTCA,0.107
11,GGGCGAGA,-0.0834
12,AGCTATAT,0.0917
13,CGCTGAAA,0.0323
14,AGTCTCCC,-0.205
15,AGCGGACG,0.00093
16,CTCTTCGA,-0.0334
17,CCGCGAGG,-0.133
18,AAAAAACC,-0.154
19,AGAGCCAA,-0.177
20,TGGGACCA,-0.219
21,GCTGGACA,-0.135
22,AAGTGCCG,-0.0786

row,Sequence,PBM E-score
1,CTCCATAA,-0.0534
2,CTAAGACC,-0.227
3,AGATGTCC,-0.00069
4,AAAACCGG,-0.099
5,AGTGCCAC,-0.177
6,AAGCTGGG,-0.103
7,GCGTGCAA,0.0992
8,CAGGAAGC,-0.146
9,ACTAAATG,0.0946
10,GAGTAAAA,0.0646
11,GCCCACGA,0.019
12,CTGGCAAA,0.00304
13,ATCTTCGA,0.0143
14,AATACCCG,-0.0667
15,ACTCCAAT,0.0555
16,GCGTGAAA,0.133
17,CTGAACTC,-0.191
18,TCCTCCAA,-0.102
19,ATGACTGC,0.0387
20,GAGTGTGC,-0.0353
